{"source": "patent US20240009168A1", "about": "(Cognition Therapeutics, Inc., priority 2020, published 2024)", "biological_target": "T1, sigma-2 receptors (Mus musculus, UniProt Q8VD00)", "T1 sequence (Q8VD00 1-176)": "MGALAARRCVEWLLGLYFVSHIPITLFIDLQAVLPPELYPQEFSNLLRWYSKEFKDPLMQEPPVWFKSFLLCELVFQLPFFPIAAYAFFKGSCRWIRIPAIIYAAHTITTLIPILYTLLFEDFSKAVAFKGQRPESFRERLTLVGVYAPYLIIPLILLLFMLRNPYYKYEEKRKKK", "assay": "Drug concentration in plasma, brain and retina", "type": "in vivo", "details": "mouse (FIG. 7), single orally administered dose", "protocol": "FIG. 6 depicts quantification of the concentration of the sigma-2 receptor modulator Compound A in mouse plasma, brain, and retina.\nFIG. 7 depicts quantification of the concentration of the sigma-2 receptor modulator, Compound B, in mouse plasma, brain and retina.\nFollowing a single oral administration of [14C]-Compound A to a rat, autoradiography was performed to determine tissue distribution. […] Receptor occupancy exceeding 80% confers efficacy in vivo. Drug concentration in the brain (cerebellum), retina, and plasma were also measured. […] Similarly, following a single orally administered dose, Compound B was found in concentrations that exceeded 80% receptor occupancy at sigma-2 receptors in the retina and plasma and approximately 50% occupancy in the brain (FIG. 7).", "note": "Some of these results come from one statement about several compounds together.", "data": [{"smiles": "CC1(O)CCN(CCC(C)(C)c2ccc(C(F)(F)F)cc2)CC1", "note": "[Compound B]", "values": [{"measurement": "receptor occupancy at sigma-2 receptors in plasma", "value": "exceeds 80%"}, {"measurement": "receptor occupancy at sigma-2 receptors in the retina", "value": "exceeds 80%"}]}]}
